Results are given in words; binding and its absence hold for the method and conditions named. Binding calls can cover weak binding; strength is not graded here.

The target of this assay is IL-2 receptor alpha (Homo sapiens (Human)). Nature of the assay: ELISA. A general note: An ELISA detects its analyte on a solid surface through an enzyme-linked reagent.

B1: SAFA-IL-2m2 (APB-R4) (protein)
heavy: QVQLVQSGGGPVKPGGSLRLSCAASGFMFRAYSMNWVRQAPGKGLEWVSSISSSGRYIHYADSVKGRFTISRDNAKNSLYLQMNSLRAEDTAVYYCARETVMAGKALDYWGQGTLVTVSSASTKGPSVFPLAPSSKSTSEGTAALGCLVKDYFPEPVTVSWNSGALTSGVHTFPAVLQSSGLYSLSSVVTVPSSSLGTQTYICNVNHKPSNTKVDKKVEPKSSGGGGSGGGGSAPTSSSTKKTQLQLEHLLLDLQMILNGINNYKNPKLTRMLTFKFYMPKKATELKHLQCLEEELKPLEEVLNLAQSKNFHLRPRDLISRINDIVLELKGSETTFSCEYADETATIVEFLNRWITFAQSIISTLT
light: DIVLTQSPGTLSLSPGETATLSCRASQSVGSNLAWYQQKPGQAPRLLIYGASTGATGVPARFSGSRSGTDFTLTITSLQPEDFATYYCQQYYSFLAKTFGQGTQLEIKRTVAAPSVFIFPPSDEQLKSGTASVVCLLNNFYPREAKVQWKVDNALQSGNSQESVTEQDSKDSTYSLSNTLTLSKADYEKHKVYACEVTHQGLSSPVTKSFNRGES
In the case of B1, the binding entry was “binds”.

Source of the values: patent US20260209300A1.
